In the test the target is full length CPE-GFP (carboxypeptidase E tagged at the C-terminal with GFP) (UniProt P16870). As to the kind of experiment: affinity purification with mass spectrometry.

Sequences of proteins named here, by UniProt entry; tags and fusion partners are left off. A change or cut given only in a name is not applied to a line headed by its entry. Residues count along the entry.
UniProt P16870: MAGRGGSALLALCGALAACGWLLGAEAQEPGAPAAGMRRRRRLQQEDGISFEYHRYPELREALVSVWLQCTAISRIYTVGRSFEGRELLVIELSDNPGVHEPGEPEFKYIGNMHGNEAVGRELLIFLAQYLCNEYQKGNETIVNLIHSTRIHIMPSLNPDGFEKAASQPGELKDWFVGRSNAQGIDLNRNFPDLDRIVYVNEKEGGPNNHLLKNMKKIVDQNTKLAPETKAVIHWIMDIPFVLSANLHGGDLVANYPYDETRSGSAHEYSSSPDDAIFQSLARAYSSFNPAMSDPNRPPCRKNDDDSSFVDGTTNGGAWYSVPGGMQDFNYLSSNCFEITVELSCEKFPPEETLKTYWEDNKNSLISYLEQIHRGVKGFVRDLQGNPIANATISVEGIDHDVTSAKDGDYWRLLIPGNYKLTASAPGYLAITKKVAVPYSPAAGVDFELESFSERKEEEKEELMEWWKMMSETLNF
UniProt P11021, residues 19-654: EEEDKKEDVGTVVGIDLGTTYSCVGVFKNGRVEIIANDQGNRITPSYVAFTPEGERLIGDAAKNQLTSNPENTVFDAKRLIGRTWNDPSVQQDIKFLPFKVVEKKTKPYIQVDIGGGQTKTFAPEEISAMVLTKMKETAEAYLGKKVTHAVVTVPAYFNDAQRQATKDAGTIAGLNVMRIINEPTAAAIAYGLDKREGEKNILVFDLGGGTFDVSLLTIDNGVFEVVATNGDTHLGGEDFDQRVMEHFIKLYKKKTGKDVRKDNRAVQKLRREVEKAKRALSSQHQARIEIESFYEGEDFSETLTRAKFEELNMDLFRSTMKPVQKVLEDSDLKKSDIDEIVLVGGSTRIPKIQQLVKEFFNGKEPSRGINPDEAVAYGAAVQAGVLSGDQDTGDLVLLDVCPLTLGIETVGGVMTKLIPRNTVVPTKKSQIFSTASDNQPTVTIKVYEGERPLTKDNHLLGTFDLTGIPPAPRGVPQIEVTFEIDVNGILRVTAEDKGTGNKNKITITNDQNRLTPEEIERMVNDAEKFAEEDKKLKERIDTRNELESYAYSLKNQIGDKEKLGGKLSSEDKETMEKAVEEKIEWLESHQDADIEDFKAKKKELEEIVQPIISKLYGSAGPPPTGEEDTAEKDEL

These are yes or no findings as the source states them, for the method shown. In cells and extracts the contact can be indirect. Here binding means that the protein was enriched with, or labelled near, the bait; the list need not be complete.

GRP78/BIP (from UniProt P11021 19-654): the binding entry is on record as “binds”.

The values are drawn from doi:10.1101/2021.06.06.447232.
